System: Vero E6 cells

Question: How did the “cytopathic effects after 24 hours” value turn out when `COC(=O)C1=C(C)NC(C)=C(C(=O)OC)C1c1ccccc1[N+](=O)[O-]` [nifedipine] was run?
Answer: Its value is “minimal cytopathic effects”.
